“And” between values parts separate entries of the source, which are not always exact repeats. Equal entries are not always repeated. Structures can show the parent of a compound that is named as a salt. ± gives the standard deviation of the averaged measurements. This is one part of the list. Many values rest on one well or one pass, so single values are uncertain.
System: RAW 264.7
Experiment: cell viability (MTT) relative to vehicle control; higher = more viable cells
Conditions: stimulus: HMGB1 5 ug/ml, 18 h
[1] = compound concentration: 1 ug/ml

Compound	cell viability (compound concentration: 3 uM)	cell viability [1] [%]
CCCCCCCCCCCCCCCCCCOCC(COP(=O)([O-])OCC[N+](C)(C)C)OC (centres undefined)	92.1%	–
NCCC1CCCC(CCN)N1 (centres undefined) [MDL 26,630 trihydrochloride]	109%	–
CCCC1O[C@@H]2C[C@H]3[C@@H]4CCC5=CC(=O)C=C[C@]5(C)[C@H]4[C@@H](O)C[C@]3(C)[C@]2(C(=O)CO)O1 (some centres undefined) [Budesonide]	106 ± 13%	–
CCCC1O[C@@H]2C[C@H]3[C@@H]4CCC5=CC(=O)C=C[C@]5(C)[C@H]4[C@@H](O)C[C@]3(C)[C@]2(C(=O)CO)O1 (some centres undefined)	110%	–
Nc1cn([C@@H]2O[C@H](CO)[C@H](O)C2O)c(=O)[nH]c1=O (some centres undefined) [5-Aminouridine hydrochloride]	–	97
CC1=C(/C=C/C(C)=C/C=C/C(C)=C/C=C/C=C(C)/C=C/C=C(C)/C=C/C2=C(C)C(=O)CCC2(C)C)C(C)(C)CCC1=O [Canthaxanthin]	116%	–
O=NN(CCCl)C(=O)NCCCl	98.7 ± 6.7%	–
O=NN(CCCl)C(=O)NCCCl [Carmustine]	97.3%	–
CCOC(=O)c1ncn2c1CN(C)C(=O)c1cc(F)ccc1-2 [Flumazenil]	105 ± 2.8%	–
CCOC(=O)c1ncn2c1CN(C)C(=O)c1cc(F)ccc1-2	98.1% and 110%	–
COc1cc(/C=C/c2ccc(O)cc2)cc(OC)c1	90%	–
NCC(O)(CS(=O)(=O)O)c1ccc(Cl)cc1 (centres undefined) [2-Hydroxysaclofen]	99.5%	–
CC[C@H](NC(=O)c1c(C)c(-c2ccccc2)nc2ccccc12)c1ccccc1	114%	–
COc1ccc(-c2oc3ccc(C)cc3c(=O)c2O)cc1OC [3',4'-Dimethoxy-3-hydroxy-6-methylflavone]	–	84.9
CC(C(=O)O)c1cccc(C(=O)c2ccccc2)c1 (centres undefined)	110%	–
CC(C(=O)O)c1cccc(C(=O)c2ccccc2)c1 (centres undefined) [Ketoprofen]	102 ± 8.8%	–
N[C@@H](CSCC(=O)O)C(=O)O [S-Carboxymethyl-L-cysteine]	–	99.4
Nc1nc(N)c2nc(CNc3ccc(C(=O)N[C@@H](CCC(=O)O)C(=O)O)cc3)cnc2n1 [Aminopterin]	88.2%	–
Nc1nc(N)c2nc(CNc3ccc(C(=O)N[C@@H](CCC(=O)O)C(=O)O)cc3)cnc2n1	111%	–
O=C1O/C(=C/Br)CCC1c1cccc2ccccc12 (centres undefined) [Bromoenol lactone]	64.8%	–
Cc1occc(=O)c1O	96.7%	–
C#C[C@]1(O)CC[C@H]2[C@@H]3CCc4cc(O)ccc4[C@H]3CC[C@@]21C	112% and 100%	–
C#C[C@]1(O)CC[C@H]2[C@@H]3CCc4cc(O)ccc4[C@H]3CC[C@@]21C [Ethinylestradiol]	109%	–
CCCCN(CCCC)CCC(O)c1cc2c(Cl)cc(Cl)cc2c2cc(C(F)(F)F)ccc12 (centres undefined) [Halofantrine hydrochloride]	81.1%	–

Given as comma-separated lines: part of the list above
Compound,cell viability (compound concentration: 3 uM),cell viability [1] [%]
NCC(O)(CS(=O)(=O)O)c1ccc(Cl)cc1 (centres undefined) [2-Hydroxysaclofen],99.5%,–
CC[C@H](NC(=O)c1c(C)c(-c2ccccc2)nc2ccccc12)c1ccccc1,114%,–
"COc1ccc(-c2oc3ccc(C)cc3c(=O)c2O)cc1OC [3',4'-Dimethoxy-3-hydroxy-6-methylflavone]",–,84.9
CC(C(=O)O)c1cccc(C(=O)c2ccccc2)c1 (centres undefined),110%,–
CC(C(=O)O)c1cccc(C(=O)c2ccccc2)c1 (centres undefined) [Ketoprofen],102 ± 8.8%,–
N[C@@H](CSCC(=O)O)C(=O)O [S-Carboxymethyl-L-cysteine],–,99.4
Nc1nc(N)c2nc(CNc3ccc(C(=O)N[C@@H](CCC(=O)O)C(=O)O)cc3)cnc2n1 [Aminopterin],88.2%,–

— the supplement of paper PMC3682954
